Experimental data published in the supplement of paper PMC10849652.
Some of the results follow.

Amino acid sequences for entries named in this document (tags omitted). A change or cut given only in a name is not applied to a line headed by its entry.
UniProt Q13526, whole entry, looked up: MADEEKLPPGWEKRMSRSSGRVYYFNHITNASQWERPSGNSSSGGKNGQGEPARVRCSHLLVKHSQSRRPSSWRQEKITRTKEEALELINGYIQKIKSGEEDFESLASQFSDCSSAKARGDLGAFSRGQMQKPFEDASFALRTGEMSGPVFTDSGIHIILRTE
PIGBOS1, A0A0B4J2F0, UniProt A0A0B4J2F0, whole entry, looked up: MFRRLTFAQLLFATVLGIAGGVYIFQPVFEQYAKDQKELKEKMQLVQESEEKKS
UniProt Q969N2: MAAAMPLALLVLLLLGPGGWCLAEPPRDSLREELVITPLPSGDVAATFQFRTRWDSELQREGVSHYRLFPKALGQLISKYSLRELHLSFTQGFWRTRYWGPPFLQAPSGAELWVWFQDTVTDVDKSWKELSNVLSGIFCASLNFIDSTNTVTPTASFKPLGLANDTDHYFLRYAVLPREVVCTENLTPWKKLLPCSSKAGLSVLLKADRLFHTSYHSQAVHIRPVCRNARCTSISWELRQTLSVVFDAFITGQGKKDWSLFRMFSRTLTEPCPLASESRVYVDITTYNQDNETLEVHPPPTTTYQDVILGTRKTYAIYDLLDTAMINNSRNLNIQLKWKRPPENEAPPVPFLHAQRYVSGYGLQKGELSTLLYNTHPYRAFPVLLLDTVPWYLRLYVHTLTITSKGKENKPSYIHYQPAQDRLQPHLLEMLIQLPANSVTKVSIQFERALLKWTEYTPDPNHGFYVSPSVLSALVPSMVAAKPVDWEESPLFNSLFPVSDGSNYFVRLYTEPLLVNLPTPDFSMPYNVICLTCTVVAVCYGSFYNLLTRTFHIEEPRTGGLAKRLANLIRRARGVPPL
UniProt O00625: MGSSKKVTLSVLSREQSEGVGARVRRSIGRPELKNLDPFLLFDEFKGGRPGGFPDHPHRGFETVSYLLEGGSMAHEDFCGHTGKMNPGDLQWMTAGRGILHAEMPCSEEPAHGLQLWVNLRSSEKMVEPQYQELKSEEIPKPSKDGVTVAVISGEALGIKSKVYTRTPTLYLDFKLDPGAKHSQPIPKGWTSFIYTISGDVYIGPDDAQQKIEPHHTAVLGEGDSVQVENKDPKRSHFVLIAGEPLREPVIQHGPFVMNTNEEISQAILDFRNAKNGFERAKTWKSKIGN
UniProt P07737, whole entry, looked up: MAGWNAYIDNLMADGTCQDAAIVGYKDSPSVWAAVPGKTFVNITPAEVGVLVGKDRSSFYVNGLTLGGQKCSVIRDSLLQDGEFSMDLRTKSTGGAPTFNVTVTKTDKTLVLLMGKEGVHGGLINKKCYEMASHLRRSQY
UniProt P19174: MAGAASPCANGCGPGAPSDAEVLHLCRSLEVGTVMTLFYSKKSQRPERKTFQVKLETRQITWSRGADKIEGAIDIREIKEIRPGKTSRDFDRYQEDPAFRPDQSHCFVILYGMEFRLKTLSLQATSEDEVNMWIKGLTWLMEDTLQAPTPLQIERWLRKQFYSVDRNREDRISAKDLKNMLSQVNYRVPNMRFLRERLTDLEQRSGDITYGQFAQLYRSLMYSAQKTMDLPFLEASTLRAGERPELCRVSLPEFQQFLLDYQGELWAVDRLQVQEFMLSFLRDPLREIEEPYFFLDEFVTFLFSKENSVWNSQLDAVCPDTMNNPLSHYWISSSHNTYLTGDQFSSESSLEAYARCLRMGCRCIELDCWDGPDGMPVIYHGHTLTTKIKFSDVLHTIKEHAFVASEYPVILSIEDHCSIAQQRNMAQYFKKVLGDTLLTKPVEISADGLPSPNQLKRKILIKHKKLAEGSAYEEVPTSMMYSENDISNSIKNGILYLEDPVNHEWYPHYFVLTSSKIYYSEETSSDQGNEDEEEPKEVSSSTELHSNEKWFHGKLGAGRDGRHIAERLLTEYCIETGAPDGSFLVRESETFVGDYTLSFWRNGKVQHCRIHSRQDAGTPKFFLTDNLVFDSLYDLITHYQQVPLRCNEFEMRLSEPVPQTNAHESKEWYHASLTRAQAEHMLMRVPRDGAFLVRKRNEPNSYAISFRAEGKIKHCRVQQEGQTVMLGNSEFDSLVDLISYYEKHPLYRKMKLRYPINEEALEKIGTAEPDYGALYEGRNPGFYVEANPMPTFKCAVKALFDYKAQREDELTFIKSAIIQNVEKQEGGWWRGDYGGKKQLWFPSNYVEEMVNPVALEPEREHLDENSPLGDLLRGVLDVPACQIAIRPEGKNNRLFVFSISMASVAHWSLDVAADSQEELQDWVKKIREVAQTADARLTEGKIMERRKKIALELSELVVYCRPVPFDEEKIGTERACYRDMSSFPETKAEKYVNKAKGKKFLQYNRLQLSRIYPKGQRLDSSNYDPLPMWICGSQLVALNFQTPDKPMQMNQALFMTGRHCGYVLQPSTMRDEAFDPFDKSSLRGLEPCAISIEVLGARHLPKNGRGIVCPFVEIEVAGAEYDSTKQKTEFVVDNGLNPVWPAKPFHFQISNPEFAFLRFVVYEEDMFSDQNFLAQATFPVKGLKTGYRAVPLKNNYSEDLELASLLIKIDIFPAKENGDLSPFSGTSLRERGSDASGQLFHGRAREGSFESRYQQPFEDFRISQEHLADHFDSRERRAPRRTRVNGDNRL
UniProt P37287: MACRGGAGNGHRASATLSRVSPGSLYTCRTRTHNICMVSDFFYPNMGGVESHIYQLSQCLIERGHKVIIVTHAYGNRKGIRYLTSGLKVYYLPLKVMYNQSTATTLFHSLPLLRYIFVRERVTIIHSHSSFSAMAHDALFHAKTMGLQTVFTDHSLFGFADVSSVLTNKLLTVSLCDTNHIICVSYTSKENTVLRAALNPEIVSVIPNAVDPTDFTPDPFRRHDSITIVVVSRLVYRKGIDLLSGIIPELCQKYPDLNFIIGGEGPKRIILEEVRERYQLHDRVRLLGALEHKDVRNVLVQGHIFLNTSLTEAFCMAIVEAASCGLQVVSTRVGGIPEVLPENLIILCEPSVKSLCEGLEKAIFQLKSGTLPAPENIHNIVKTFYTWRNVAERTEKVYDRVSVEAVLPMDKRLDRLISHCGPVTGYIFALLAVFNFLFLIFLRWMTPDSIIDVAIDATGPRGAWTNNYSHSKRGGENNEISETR
UniProt Q5JRX3: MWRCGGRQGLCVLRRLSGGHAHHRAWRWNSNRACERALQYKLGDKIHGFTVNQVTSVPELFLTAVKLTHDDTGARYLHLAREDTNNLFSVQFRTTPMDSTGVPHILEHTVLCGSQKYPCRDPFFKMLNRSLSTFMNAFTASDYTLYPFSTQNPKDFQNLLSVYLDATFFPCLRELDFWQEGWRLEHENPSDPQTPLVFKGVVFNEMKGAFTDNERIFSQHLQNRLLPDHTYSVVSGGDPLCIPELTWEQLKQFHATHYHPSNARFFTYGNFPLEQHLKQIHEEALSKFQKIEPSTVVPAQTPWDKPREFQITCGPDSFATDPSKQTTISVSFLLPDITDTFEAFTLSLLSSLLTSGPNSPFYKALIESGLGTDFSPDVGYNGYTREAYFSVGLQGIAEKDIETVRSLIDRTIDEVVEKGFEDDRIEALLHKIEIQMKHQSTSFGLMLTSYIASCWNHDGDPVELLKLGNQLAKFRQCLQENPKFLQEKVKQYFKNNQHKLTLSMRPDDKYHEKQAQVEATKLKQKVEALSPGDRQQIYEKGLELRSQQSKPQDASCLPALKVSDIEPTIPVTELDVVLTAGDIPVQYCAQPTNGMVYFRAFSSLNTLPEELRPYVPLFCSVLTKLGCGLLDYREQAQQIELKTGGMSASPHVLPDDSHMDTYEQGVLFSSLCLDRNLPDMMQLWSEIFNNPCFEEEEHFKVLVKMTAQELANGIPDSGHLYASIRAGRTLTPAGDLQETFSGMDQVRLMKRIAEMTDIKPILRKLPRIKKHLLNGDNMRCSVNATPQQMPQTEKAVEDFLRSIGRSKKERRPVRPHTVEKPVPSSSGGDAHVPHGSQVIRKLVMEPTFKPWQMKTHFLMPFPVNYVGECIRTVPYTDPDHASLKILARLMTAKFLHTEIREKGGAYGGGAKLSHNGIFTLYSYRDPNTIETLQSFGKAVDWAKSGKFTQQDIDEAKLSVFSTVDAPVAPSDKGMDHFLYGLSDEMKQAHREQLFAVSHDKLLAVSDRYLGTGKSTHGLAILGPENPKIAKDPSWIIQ
UniProt Q99623, whole entry, looked up: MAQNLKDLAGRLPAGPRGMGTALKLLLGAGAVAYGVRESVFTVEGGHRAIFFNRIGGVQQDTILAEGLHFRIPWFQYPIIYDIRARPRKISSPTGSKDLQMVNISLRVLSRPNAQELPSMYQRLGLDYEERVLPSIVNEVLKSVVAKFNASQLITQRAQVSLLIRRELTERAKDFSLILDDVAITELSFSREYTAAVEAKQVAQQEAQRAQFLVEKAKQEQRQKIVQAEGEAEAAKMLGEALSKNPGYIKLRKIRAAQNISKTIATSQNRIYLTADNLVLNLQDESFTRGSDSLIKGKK
UniProt O43175: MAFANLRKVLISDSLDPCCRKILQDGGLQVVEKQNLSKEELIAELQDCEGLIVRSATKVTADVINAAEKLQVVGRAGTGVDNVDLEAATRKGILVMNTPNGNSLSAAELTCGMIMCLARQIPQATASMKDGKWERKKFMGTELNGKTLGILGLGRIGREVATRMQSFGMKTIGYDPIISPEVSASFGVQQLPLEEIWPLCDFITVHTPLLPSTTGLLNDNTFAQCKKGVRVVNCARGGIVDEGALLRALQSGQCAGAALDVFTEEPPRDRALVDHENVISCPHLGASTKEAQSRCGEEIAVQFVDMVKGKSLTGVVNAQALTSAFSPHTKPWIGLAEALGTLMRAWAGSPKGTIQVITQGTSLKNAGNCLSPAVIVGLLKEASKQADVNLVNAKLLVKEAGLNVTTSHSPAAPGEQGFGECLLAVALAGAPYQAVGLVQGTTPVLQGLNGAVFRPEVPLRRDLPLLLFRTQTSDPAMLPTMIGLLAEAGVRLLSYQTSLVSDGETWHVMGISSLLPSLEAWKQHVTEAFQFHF
UniProt Q00169: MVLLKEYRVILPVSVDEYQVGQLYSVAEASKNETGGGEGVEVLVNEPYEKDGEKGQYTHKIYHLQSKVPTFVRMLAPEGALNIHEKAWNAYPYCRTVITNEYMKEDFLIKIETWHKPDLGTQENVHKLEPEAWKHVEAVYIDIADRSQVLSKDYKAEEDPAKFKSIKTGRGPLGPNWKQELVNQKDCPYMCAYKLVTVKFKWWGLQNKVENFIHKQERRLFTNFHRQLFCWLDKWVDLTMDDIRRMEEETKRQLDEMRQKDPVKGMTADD
UniProt Q9NWS0, whole entry, looked up: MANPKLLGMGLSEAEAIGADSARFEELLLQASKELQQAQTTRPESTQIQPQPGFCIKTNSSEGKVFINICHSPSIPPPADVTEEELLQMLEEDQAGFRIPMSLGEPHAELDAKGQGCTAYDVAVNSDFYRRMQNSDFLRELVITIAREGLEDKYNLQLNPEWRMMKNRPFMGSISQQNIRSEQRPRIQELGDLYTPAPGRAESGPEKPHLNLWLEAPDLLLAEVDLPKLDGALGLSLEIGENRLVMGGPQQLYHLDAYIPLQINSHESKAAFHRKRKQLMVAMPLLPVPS
UniProt Q93100: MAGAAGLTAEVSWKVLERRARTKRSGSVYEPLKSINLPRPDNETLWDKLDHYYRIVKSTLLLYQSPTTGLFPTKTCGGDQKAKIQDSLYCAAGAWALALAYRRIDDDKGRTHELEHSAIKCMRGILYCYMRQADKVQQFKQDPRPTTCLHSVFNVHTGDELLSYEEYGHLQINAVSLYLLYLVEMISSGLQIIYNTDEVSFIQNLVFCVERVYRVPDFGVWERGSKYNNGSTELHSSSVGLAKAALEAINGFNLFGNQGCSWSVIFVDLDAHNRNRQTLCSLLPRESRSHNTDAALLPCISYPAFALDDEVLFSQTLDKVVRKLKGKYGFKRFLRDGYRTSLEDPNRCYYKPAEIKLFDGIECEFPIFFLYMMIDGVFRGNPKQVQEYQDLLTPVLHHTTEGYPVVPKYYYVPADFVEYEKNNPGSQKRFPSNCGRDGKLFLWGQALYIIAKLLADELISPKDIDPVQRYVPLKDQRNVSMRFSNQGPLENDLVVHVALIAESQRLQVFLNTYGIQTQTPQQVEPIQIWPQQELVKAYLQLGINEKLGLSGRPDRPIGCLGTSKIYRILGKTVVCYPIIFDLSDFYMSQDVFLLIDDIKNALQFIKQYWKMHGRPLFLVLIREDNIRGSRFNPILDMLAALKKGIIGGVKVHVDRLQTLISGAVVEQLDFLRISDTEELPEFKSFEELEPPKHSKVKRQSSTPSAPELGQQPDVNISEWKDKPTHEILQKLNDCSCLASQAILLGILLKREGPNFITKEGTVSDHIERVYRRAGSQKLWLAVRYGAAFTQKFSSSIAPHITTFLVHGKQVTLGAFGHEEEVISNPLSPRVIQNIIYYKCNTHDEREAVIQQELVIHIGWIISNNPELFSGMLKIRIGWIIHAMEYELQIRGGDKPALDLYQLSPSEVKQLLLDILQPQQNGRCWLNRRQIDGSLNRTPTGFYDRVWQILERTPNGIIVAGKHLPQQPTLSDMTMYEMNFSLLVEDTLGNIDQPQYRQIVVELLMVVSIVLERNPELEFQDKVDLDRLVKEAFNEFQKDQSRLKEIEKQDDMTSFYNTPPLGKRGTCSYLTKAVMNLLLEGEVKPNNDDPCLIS

Experiments:
Assay in all cases: log2 fold change, soluble protein after heating vs DMSO (PISA); higher = thermal stabilisation; K562 cells, 10 uM, 30 min; active = over 0.2 and 3.5 SD of the protein, either way, in both replicates (recomputed)
bafetinib = compound: Cc1ccc(NC(=O)c2ccc(CN3CC[C@H](N(C)C)C3)c(C(F)(F)F)c2)cc1Nc1nccc(-c2cncnc2)n1 [bafetinib]
Summary of the method: (§1)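 For each measurement, 10 μM compound was applied for 30 min to K562 cells at 2×10^6 cells/mL. Aliquots were heated for 3 min across 48°C-58°C, pooled, and extracted in PBS with 0.5% NP-40 at 4°C; the supernatant after 21,000xg for 90 min was soluble protein. This was quantified by TMTpro 16plex LC-MS/MS with channel sums equalised, and thermal stability was reported relative to control samples from duplicates, on a log2 fold-change scale.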

[1] = compound: Cc1cccc(CC(=O)N2CCc3c2ccc(-c2cn(C)c4ncnc(N)c24)c3F)n1
Summary of the method: as §1

nilotinib = compound: Cc1cn(-c2cc(NC(=O)c3ccc(C)c(Nc4nccc(-c5cccnc5)n4)c3)cc(C(F)(F)F)c2)cn1 [nilotinib]
Summary of the method: as §1

[2] = compound: Cc1nc(Nc2n[nH]c3c2CN(C(=O)N[C@H](CN(C)C)c2ccccc2)C3(C)C)c2sccc2n1
Summary of the method: as §1

dasatinib = compound: Cc1nc(Nc2ncc(C(=O)Nc3c(C)cccc3Cl)s2)cc(N2CCN(CCO)CC2)n1 [dasatinib]
Summary of the method: as §1

[3] = compound: Cc1ncc(-c2ccnc(Nc3ccc(S(C)(=O)=O)cc3)n2)n1C(C)C
Summary of the method: as §1

[4] = compound: Cn1cc(-c2ccc3c(c2)CCN3C(=O)Cc2cccc(C(F)(F)F)c2)c2c(N)ncnc21
Summary of the method: as §1

[5] = compound: Cn1cc(-c2ccc3nnc(C(F)(F)c4ccc5ncccc5c4)n3n2)cn1
Summary of the method: as §1

tipifarnib = compound: Cn1cncc1[C@@](N)(c1ccc(Cl)cc1)c1ccc2c(c1)c(-c1cccc(Cl)c1)cc(=O)n2C [tipifarnib]
Summary of the method: as §1

mubritinib = compound: FC(F)(F)c1ccc(/C=C/c2nc(COc3ccc(CCCCn4ccnn4)cc3)co2)cc1 [mubritinib]
Summary of the method: as §1

Measured: log2 fold change

PIN1 (UniProt Q13526)
inactive: bafetinib -0.046 | [1] 0.033 | nilotinib 0.017 | [2] -0.072 | dasatinib -0.023 | [3] -0.003 | [4] 0.018 | [5] -0.009 | tipifarnib -0.055 | mubritinib 0.05

PFKFB3 isoform 4 (UniProt Q16875)
inactive: bafetinib -0.037 | [1] -0.034 | nilotinib -0.058 | [2] 0.016 | dasatinib -0.047 | [3] -0.02 | [4] -0.007 | [5] 0.041 | tipifarnib 0.005 | mubritinib 0.013

PHF6 (UniProt Q8IWS0)
inactive: bafetinib 0.219 | [1] -0.002 | nilotinib 0.016 | [2] -0.028 | dasatinib 0.154 | [3] -0.048 | [4] -0.223 | [5] -0.181 | tipifarnib 0.103 | mubritinib -0.139

PIGBOS1, A0A0B4J2F0
inactive: bafetinib -0.105 | [1] -0.055 | nilotinib 0.003 | [2] -0.029 | dasatinib 0.107 | [3] -0.017 | [4] 0.073 | [5] 0.066 | tipifarnib 0.072 | mubritinib 0.027

PKN2 (UniProt Q16513)
inactive: bafetinib 0.068 | [1] 0.062 | nilotinib 0.125 | [2] -0.219 | dasatinib -0.138 | [3] 0.051 | [4] 0.016 | [5] 0.01 | tipifarnib -0.059 | mubritinib 0.048

PEX19 (UniProt P40855)
inactive: bafetinib -0.048 | [1] -0.038 | nilotinib 0.042 | [2] -0.004 | dasatinib 0.041 | [3] 0.005 | [4] -0.003 | [5] -0.022 | tipifarnib 0.005 | mubritinib 0.019

PIGK (UniProt Q92643)
inactive: bafetinib 0.004 | [1] -0.133 | nilotinib -0.039 | [2] 0.04 | dasatinib -0.005 | [3] -0.006 | [4] -0.063 | [5] -0.004 | tipifarnib 0.037 | mubritinib -0.073

PIGT (UniProt Q969N2)
inactive: bafetinib -0.042 | [1] 0 | nilotinib -0.029 | [2] 0.046 | dasatinib -0.031 | [3] -0.028 | [4] -0.011 | [5] 0.003 | tipifarnib -0.029 | mubritinib -0.037

PIR (UniProt O00625)
inactive: bafetinib -0.073 | [1] 0.001 | nilotinib 0.009 | [2] -0.006 | dasatinib -0.044 | [3] -0.014 | [4] -0.003 | [5] 0.028 | tipifarnib -0.069 | mubritinib 0.11

PINX1 (UniProt Q96BK5)
inactive: bafetinib 0.086 | [1] 0.017 | nilotinib -0.132 | [2] 0.04 | dasatinib 0.221 | [3] -0.242 | [4] -0.318 | [5] -0.069 | tipifarnib 0.413 | mubritinib -0.129

PFN1 (UniProt P07737)
inactive: bafetinib -0.059 | [1] 0.018 | nilotinib -0.041 | [2] -0.013 | dasatinib 0.015 | [3] -0.004 | [4] 0.034 | [5] 0.019 | tipifarnib -0.023 | mubritinib 0.016

PHB (UniProt P35232)
inactive: bafetinib -0.041 | [1] -0.012 | nilotinib -0.039 | [2] -0.004 | dasatinib 0.075 | [3] -0.036 | [4] 0.032 | [5] 0.05 | tipifarnib 0.034 | mubritinib 0.016

PLCG1 isoform 2 (UniProt P19174)
inactive: bafetinib -0.054 | [1] -0.08 | nilotinib -0.072 | [2] 0.079 | dasatinib -0.257 | [3] 0.024 | [4] 0.031 | [5] 0.005 | tipifarnib -0.144 | mubritinib 0.11

PIGA (UniProt P37287)
inactive: bafetinib -0.015 | [1] 0.074 | nilotinib 0.033 | [2] 0.018 | dasatinib 0.145 | [3] -0.026 | [4] 0.015 | [5] -0.034 | tipifarnib -0.042 | mubritinib 0.04

PITRM1 isoform 2 (UniProt Q5JRX3)
inactive: bafetinib -0.052 | [1] -0.039 | nilotinib -0.108 | [2] 0.01 | dasatinib -0.132 | [3] -0.088 | [4] 0.119 | [5] -0.004 | tipifarnib 0.003 | mubritinib 0.005

PLA2G4B isoform 6 (UniProt P0C869)
inactive: bafetinib -0.064 | [1] -0.092 | nilotinib -0.084 | [2] 0.135 | dasatinib -0.048 | [3] 0.019 | [4] 0.193 | [5] -0.157 | tipifarnib -0.019 | mubritinib 0.021

PFDN5 (UniProt Q99471)
inactive: bafetinib 0.014 | [1] 0.137 | nilotinib 0.022 | [2] -0.003 | dasatinib -0.026 | [3] -0.011 | [4] 0.062 | [5] 0.065 | tipifarnib 0.014 | mubritinib 0

PIP5K1A (UniProt Q99755)
inactive: bafetinib 0 | [1] -0.042 | nilotinib -0.271 | [2] -0.04 | dasatinib 0.027 | [3] -0.231 | [4] -0.266 | [5] -0.11 | tipifarnib 0.047 | mubritinib -0.14

PITHD1 (UniProt Q9GZP4)
inactive: bafetinib -0.199 | [1] -0.094 | nilotinib 0.084 | [2] 0.003 | dasatinib 0.005 | [3] -0.01 | [4] 0.036 | [5] -0.021 | tipifarnib 0.081 | mubritinib -0.004

2 records drawn at random from those above:
PHB (UniProt P35232)
inactive: bafetinib -0.041 | [1] -0.012 | nilotinib -0.039 | [2] -0.004 | dasatinib 0.075 | [3] -0.036 | [4] 0.032 | [5] 0.05 | tipifarnib 0.034 | mubritinib 0.016

PIGA (UniProt P37287)
inactive: bafetinib -0.015 | [1] 0.074 | nilotinib 0.033 | [2] 0.018 | dasatinib 0.145 | [3] -0.026 | [4] 0.015 | [5] -0.034 | tipifarnib -0.042 | mubritinib 0.04

(continued)

PFKFB4 (UniProt Q16877)
inactive: bafetinib -0.151 | [1] 0.082 | nilotinib -0.097 | [2] 0.024 | dasatinib -0.084 | [3] -0.02 | [4] 0.005 | [5] -0.002 | tipifarnib -0.032 | mubritinib -0.014

PHF23 (UniProt Q9BUL5)
inactive: bafetinib -0.053 | [1] -0.008 | nilotinib 0.06 | [2] -0.003 | dasatinib -0.007 | [3] -0.013 | [4] -0.018 | [5] 0.046 | tipifarnib 0.009 | mubritinib 0.029

PHB2 (UniProt Q99623)
inactive: bafetinib -0.02 | [1] -0.006 | nilotinib -0.017 | [2] 0.025 | dasatinib 0.015 | [3] -0.021 | [4] 0.002 | [5] 0.019 | tipifarnib 0.051 | mubritinib 0.016

PHGDH (UniProt O43175)
inactive: bafetinib -0.011 | [1] -0.017 | nilotinib 0.026 | [2] 0.001 | dasatinib 0.036 | [3] 0 | [4] 0.025 | [5] 0.024 | tipifarnib -0.033 | mubritinib 0.03

PLCB3 (UniProt Q01970)
inactive: bafetinib -0.059 | [1] -0.084 | nilotinib -0.104 | [2] 0.033 | dasatinib -0.092 | [3] -0.006 | [4] -0.006 | [5] 0.061 | tipifarnib -0.039 | mubritinib 0.003

PITPNA (UniProt Q00169)
inactive: bafetinib 0.001 | [1] -0.051 | nilotinib -0.002 | [2] 0.026 | dasatinib 0.034 | [3] 0.004 | [4] 0.02 | [5] 0.033 | tipifarnib -0.003 | mubritinib 0.007

PIH1D1 (UniProt Q9NWS0)
inactive: bafetinib 0.076 | [1] 0.042 | nilotinib 0.034 | [2] -0.018 | dasatinib 0.028 | [3] 0.02 | [4] -0.014 | [5] -0.029 | tipifarnib -0.088 | mubritinib 0.018

PHKA1 (UniProt P46020)
inactive: bafetinib 0.023 | [1] -0.004 | nilotinib -0.233 | [2] -0.021 | dasatinib -0.303 | [3] 0.023 | [4] 0.027 | [5] -0.092 | tipifarnib 0.083 | mubritinib -0.04

PHKB isoform 3 (UniProt Q93100)
inactive: bafetinib 0.045 | [1] -0.004 | nilotinib -0.19 | [2] 0.037 | dasatinib -0.221 | [3] 0.001 | [4] -0.052 | [5] -0.023 | tipifarnib -0.027 | mubritinib 0.001

PEX6 (UniProt Q13608)
inactive: bafetinib -0.034 | [1] 0.002 | nilotinib -0.063 | [2] -0.004 | dasatinib -0.023 | [3] 0.016 | [4] -0.055 | [5] 0.033 | tipifarnib 0.037 | mubritinib 0.089

PFKP (UniProt Q01813)
inactive: bafetinib -0.021 | [1] -0.01 | nilotinib -0.02 | [2] 0.016 | dasatinib -0.04 | [3] -0.012 | [4] 0.068 | [5] 0.01 | tipifarnib 0.012 | mubritinib 0.008
